According to US11904042B2, “Hair coloring composition and methods for its application and removal” (HFC Prestige International Holding Switzerland S.a.r.l, priority 2018, dated 2024):

Assays:
[1] = S-19 / perylenes washing test: color (Lab) of colored hair strands after wash cycles
[2] = Example 2A: azo dye in multicomponent kit (Michael addition), color result and wash fastness; settings: after 15 washes
Procedure: Pretreatment to Apply Cationic Polymer (PEI, Polyethylenimine) on the Hair Fiber Surface: • 1 ml of PEI solution (0.5% aqueous solution of PEI (MW: 75 kDa) is applied on the hair strand. • The hair strand is dried via blow-dryer, followed by further drying at 40° C. in the oven.
100 mg azo dye is suspended in 1 g THF, and 8.4 g Isododecane (2,2,4,6,6-pentamethylheptane) solution are added as solvent. Subsequently, 200 mg Silmer OH ACR DI-10 polymer (acrylate derivative) and 300 mg Silamine 2972 is added to the reaction mixture. The mixture is stirred at room temperature for 5 min.
1 g of the above prepared formulation is applied on a pre-treated hair tress (as described above) and the polymers are allowed to react to start forming a film immobilizing the added dye. After removing the excess of the formulation, the film forming reaction is completed as the hair tress is dried via a heat blower.

[3] = difference to PEI pretreatment, film former: acrylates, washing 5 times
[4] = difference to PEI pretreatment, film former: silicones, washing 5 times
[5] = film former: acrylates, washing 5 times
[6] = film former: silicones, washing 5 times
[7] = difference to value after PEI pretreatment, film former: acrylates, # wash 0
[8] = difference to value after PEI pretreatment, film former: acrylates, # wash 1
[9] = difference to value after PEI pretreatment, film former: acrylates, # wash 3
[10] = difference to value after PEI pretreatment, film former: acrylates, # wash 6
[11] = difference to value after PEI pretreatment, film former: acrylates, # wash 9
[12] = difference to value after PEI pretreatment, film former: acrylates, # wash 12
[13] = difference to value after PEI pretreatment, film former: acrylates, # wash 15
[14] = difference to value after PEI pretreatment, film former: silicones, # wash 0
[15] = difference to value after PEI pretreatment, film former: silicones, # wash 1
[16] = difference to value after PEI pretreatment, film former: silicones, # wash 3
[17] = difference to value after PEI pretreatment, film former: silicones, # wash 6
[18] = difference to value after PEI pretreatment, film former: silicones, # wash 9
[19] = difference to value after PEI pretreatment, film former: silicones, # wash 12
[20] = difference to value after PEI pretreatment, film former: silicones, # wash 15
[21] = difference to value after PEI pretreatment, no film former, # wash 0
[22] = difference to value after PEI pretreatment, no film former, # wash 5
[23] = film former: acrylates, # wash 0
[24] = film former: acrylates, # wash 1
[25] = film former: acrylates, # wash 3
[26] = film former: acrylates, # wash 6
[27] = film former: acrylates, # wash 9
[28] = film former: acrylates, # wash 12
[29] = film former: acrylates, # wash 15
[30] = film former: silicones, # wash 0
[31] = film former: silicones, # wash 1
[32] = film former: silicones, # wash 3
[33] = film former: silicones, # wash 6
[34] = film former: silicones, # wash 9
[35] = film former: silicones, # wash 12
[36] = film former: silicones, # wash 15

CCCCC(CCCC)N1C(=O)c2ccc3c4ccc5c6c(ccc(c7ccc(c2c37)C1=O)c64)C(=O)N(C(CCCC)CCCC)C5=O [S-9]
ΔL [1, 3]: 26.82 | Δa [1, 3]: 49.56 | Δb [1, 3]: 21.33 | ΔL [1, 4]: 20.31 | Δa [1, 4]: 38.19 | Δb [1, 4]: 2.2 | L [1, 5]: 42.95 | a [1, 5]: 51.34 | b [1, 5]: 45.27 | L [1, 6]: 49.46 | a [1, 6]: 39.97 | b [1, 6]: 26.14

CCCCCCCCC(CCCCCCCC)N1C(=O)c2ccc3c4ccc5c6c(ccc(c7ccc(c2c37)C1=O)c64)C(=O)N(C(CCCCCCCC)CCCCCCCC)C5=O [S-17]
ΔL [1, 3]: 31.32 | Δa [1, 3]: 57.7 | Δb [1, 3]: 33.43 | ΔL [1, 4]: 35.23 | Δa [1, 4]: 48.59 | Δb [1, 4]: 8.11 | L [1, 5]: 38.45 | a [1, 5]: 59.48 | b [1, 5]: 57.37 | L [1, 6]: 34.54 | a [1, 6]: 50.37 | b [1, 6]: 32.05

CCCCCCCCCC(CCCCCCCCC)N1C(=O)c2ccc3c4ccc5c6c(cc([N+](=O)[O-])c(c7ccc(c2c37)C1=O)c64)C(=O)N(C(CCCCCCCCC)CCCCCCCCC)C5=O [S-19-nitro]
ΔL [1, 3]: 45.12 | Δa [1, 3]: 49.26 | Δb [1, 3]: 18.41 | ΔL [1, 4]: 44.69 | Δa [1, 4]: 46.01 | Δb [1, 4]: 19.14 | L [1, 5]: 24.65 | a [1, 5]: 51.04 | b [1, 5]: 42.35 | L [1, 6]: 25.08 | a [1, 6]: 47.79 | b [1, 6]: 43.08

CCCCCCCCCC(CCCCCCCCC)N1C(=O)c2ccc3c4ccc5c6c(ccc(c7ccc(c2c37)C1=O)c64)C(=O)N(C(CCCCCCCCC)CCCCCCCCC)C5=O [S-19]
ΔL [1, 3]: 34.70 | Δa [1, 3]: 57.09 | Δb [1, 3]: 32.25 | ΔL [1, 4]: 27.71 | Δa [1, 4]: 45.57 | Δb [1, 4]: 1.95 | ΔL [1, 7]: 39.44 | Δa [1, 7]: 56.66 | Δb [1, 7]: 20.43 | ΔL [1, 8]: 35.99 | Δa [1, 8]: 49.41 | Δb [1, 8]: 28.95 | ΔL [1, 9]: 36.46 | Δa [1, 9]: 46.3 | Δb [1, 9]: 25.73 | ΔL [1, 10]: 33.24 | Δa [1, 10]: 50.49 | Δb [1, 10]: 31.52 | ΔL [1, 11]: 30.86 | Δa [1, 11]: 50.5 | Δb [1, 11]: 30.32 | ΔL [1, 12]: 31.24 | Δa [1, 12]: 51.79 | Δb [1, 12]: 31.35 | ΔL [1, 13]: 31.37 | Δa [1, 13]: 52.51 | Δb [1, 13]: 31.95 | ΔL [1, 14]: 37.38 | Δa [1, 14]: 48.67 | Δb [1, 14]: 27.55 | ΔL [1, 15]: 41.1 | Δa [1, 15]: 47.24 | Δb [1, 15]: 24.27 | ΔL [1, 16]: 29.2 | Δa [1, 16]: 40.07 | Δb [1, 16]: −6.68 | ΔL [1, 17]: 22.3 | Δa [1, 17]: 41.04 | Δb [1, 17]: 0.45 | ΔL [1, 18]: 26.38 | Δa [1, 18]: 36.62 | Δb [1, 18]: 1.4 | ΔL [1, 19]: 18.88 | Δa [1, 19]: 33.36 | Δb [1, 19]: −0.45 | ΔL [1, 20]: 19.74 | Δa [1, 20]: 29.6 | Δb [1, 20]: −4.66 | ΔL [1, 21]: 43.89 | Δa [1, 21]: 47.44 | Δb [1, 21]: 20.41 | ΔL [1, 22]: 15.56 | Δa [1, 22]: 25.79 | Δb [1, 22]: −1.43 | L [1, 23]: 30.33 | a [1, 23]: 58.44 | b [1, 23]: 44.37 | L [1, 24]: 33.78 | a [1, 24]: 51.19 | b [1, 24]: 52.89 | L [1, 25]: 33.31 | a [1, 25]: 48.08 | b [1, 25]: 49.67 | L [1, 26]: 36.53 | a [1, 26]: 52.27 | b [1, 26]: 55.46 | L [1, 27]: 38.91 | a [1, 27]: 52.28 | b [1, 27]: 54.26 | L [1, 28]: 38.53 | a [1, 28]: 53.57 | b [1, 28]: 55.29 | L [1, 29]: 38.40 | a [1, 29]: 54.29 | b [1, 29]: 55.89 | L [1, 5]: 35.07 | a [1, 5]: 58.87 | b [1, 5]: 56.19 | L [1, 30]: 32.39 | a [1, 30]: 50.45 | b [1, 30]: 51.49 | L [1, 31]: 28.67 | a [1, 31]: 49.02 | b [1, 31]: 48.21 | L [1, 32]: 40.57 | a [1, 32]: 41.85 | b [1, 32]: 17.26 | L [1, 33]: 47.47 | a [1, 33]: 42.82 | b [1, 33]: 24.39 | L [1, 34]: 43.39 | a [1, 34]: 38.40 | b [1, 34]: 25.34 | L [1, 35]: 50.89 | a [1, 35]: 35.14 | b [1, 35]: 23.49 | L [1, 36]: 50.03 | a [1, 36]: 31.38 | b [1, 36]: 19.28 | L [1, 6]: 42.06 | a [1, 6]: 47.35 | b [1, 6]: 25.89 | L ([1]; no film former, # wash 0): 25.88 | a ([1]; no film former, # wash 0): 49.22 | b ([1]; no film former, # wash 0): 44.35 | L ([1]; no film former, # wash 5): 54.21 | a ([1]; no film former, # wash 5): 27.57 | b ([1]; no film former, # wash 5): 22.51

CCN(CCO)c1ccc(/N=N/c2nc(N3CCN(C)CC3)c(C=C3C(=O)c4ccccc4C3=O)s2)cc1 [black azo, 2-[[2-[(E)-[4-[ethyl(2-hydroxyethyl)amino]phenyl]azo]-4-(4-methylpiperazin-1-yl)thiazol-5-yl]methylene]indane-1,3-dione]
wash fastness observation [2]: moderate

CCN(CCO)c1ccc(/N=N/c2nc(Cl)c(C=C3C(=O)c4ccccc4C3=O)s2)cc1 [blue azo, 2-{[4-chloro-2-((E)-{4-[ethyl(2-hydroxyethyl)amino]phenyl}diazenyl)-1,3-thiazol-5-yl]methylidene}-1H-indene-1,3(2H)-dione]
wash fastness observation [2]: very good
